The data set concerns lettuce. Kind of data set: PCA content analysis of lettuce leaves and soil by LC-MS-MS. The class given is in vivo. As to conditions: for PCA content: treatment at seeding, approximately eight weeks after sowing (table title says six weeks).

We go through two compounds from patent publication US20210371353A1, “FERTILIZER COMPOSITIONS AND PLANTS CONTAINING PROTOCATECHUIC ACID, AND USES THEREOF” (priority 2020, published 2021).

Structures are written as SMILES.

On to `O=C(O)c1ccc(O)c(O)c1` [PCA coating, protocatechuic acid], for which the “PCA content relative to control” value (leaf, control leaf 1.34 ppm) is 4.4× and the “PCA content relative to control” value (soil, control soil <0.2 ppm) is less than 14.8×. The PCA content came to 5.91 ppm (leaf) and 2.96 ppm (soil).
On the same counts, the results for `O=C(O)c1ccc(O)c(O)c1` [PCA crystals, protocatechuic acid] are 7.4×, less than 29.4×, 9.88 ppm and 5.87 ppm.
